# Test results as given in paper PMC9411159.
# Results are given in words; binding and its absence hold for the method and conditions named. In cells and extracts the contact can be indirect. Some entries that bind do so weakly or less than the wild type. For part of these data: Where a sequence is shown, tags or fusion partners need not be part of it.
# T1: Flag-tagged ARID3A (UniProt Q99856)
# T1 sequence: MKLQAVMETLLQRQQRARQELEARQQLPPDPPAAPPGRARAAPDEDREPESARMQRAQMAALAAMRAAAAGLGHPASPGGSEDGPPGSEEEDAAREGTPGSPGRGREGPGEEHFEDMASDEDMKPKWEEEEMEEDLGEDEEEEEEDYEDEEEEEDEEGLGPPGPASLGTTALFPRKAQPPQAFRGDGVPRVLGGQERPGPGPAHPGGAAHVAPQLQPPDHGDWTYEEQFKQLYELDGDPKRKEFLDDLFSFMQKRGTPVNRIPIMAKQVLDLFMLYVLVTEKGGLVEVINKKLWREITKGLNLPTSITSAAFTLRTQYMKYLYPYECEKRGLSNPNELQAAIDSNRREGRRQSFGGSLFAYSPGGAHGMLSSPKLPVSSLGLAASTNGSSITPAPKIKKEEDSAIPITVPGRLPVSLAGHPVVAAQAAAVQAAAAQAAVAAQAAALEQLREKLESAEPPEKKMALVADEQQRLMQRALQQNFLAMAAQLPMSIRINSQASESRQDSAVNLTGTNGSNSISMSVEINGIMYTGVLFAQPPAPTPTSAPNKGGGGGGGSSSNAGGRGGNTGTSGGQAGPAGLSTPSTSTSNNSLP
# T2: AT-rich interacting domain 3A (ARID3A) (human (endogenous in Huh7)) (UniProt Q99856)
# T2 sequence: T1 sequence
# T3: centrosomal protein 131 kDa (CEP131) (human (endogenous in Huh7)) (UniProt Q9UPN4)
# T3 sequence: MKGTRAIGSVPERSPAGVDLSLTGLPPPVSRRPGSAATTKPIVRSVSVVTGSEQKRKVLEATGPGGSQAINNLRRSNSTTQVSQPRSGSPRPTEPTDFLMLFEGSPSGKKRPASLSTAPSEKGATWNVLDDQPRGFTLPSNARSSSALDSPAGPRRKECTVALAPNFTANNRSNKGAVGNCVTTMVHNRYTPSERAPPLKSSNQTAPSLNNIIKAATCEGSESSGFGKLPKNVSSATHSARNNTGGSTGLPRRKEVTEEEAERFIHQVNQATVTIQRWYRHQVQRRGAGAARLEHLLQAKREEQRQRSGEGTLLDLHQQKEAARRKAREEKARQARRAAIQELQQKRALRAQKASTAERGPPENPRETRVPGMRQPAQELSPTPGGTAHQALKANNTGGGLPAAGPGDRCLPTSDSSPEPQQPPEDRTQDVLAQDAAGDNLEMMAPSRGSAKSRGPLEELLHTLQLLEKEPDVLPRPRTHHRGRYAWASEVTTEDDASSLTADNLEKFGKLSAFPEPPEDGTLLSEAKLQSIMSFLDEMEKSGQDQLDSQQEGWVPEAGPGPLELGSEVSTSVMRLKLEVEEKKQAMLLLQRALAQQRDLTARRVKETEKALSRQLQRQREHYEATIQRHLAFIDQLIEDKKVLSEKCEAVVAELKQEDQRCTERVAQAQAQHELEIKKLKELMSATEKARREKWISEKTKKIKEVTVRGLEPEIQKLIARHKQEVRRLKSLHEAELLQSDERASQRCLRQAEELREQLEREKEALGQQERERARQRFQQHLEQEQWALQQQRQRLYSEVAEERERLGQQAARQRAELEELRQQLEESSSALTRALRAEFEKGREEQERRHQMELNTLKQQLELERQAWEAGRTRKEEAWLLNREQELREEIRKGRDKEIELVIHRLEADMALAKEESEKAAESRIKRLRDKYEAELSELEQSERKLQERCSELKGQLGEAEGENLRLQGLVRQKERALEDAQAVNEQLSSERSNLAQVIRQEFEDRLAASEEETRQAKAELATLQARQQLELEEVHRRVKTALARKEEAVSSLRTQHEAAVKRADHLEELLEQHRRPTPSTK
# B1: HA-tagged CEP131 (protein, UniProt Q9UPN4 1-1083)
# chain: T3 sequence
# B2: centrosomal protein 131 kDa (CEP131) (protein, UniProt Q9UPN4 1-1083)
# chain: T3 sequence
# B3: AT-rich interacting domain 3A (ARID3A) (protein, UniProt Q99856 1-593)
# chain: T1 sequence
# What was measured:
# [1] = target: T1, Flag-tagged ARID3A; test: co-IP; Huh7 and HEK-293T cells transfected with Flag-tagged ARID3A and HA-tagged CEP131; capture with anti-Flag antibody
# [2] = target: T2, AT-rich interacting domain 3A (ARID3A) (human (endogenous in Huh7)); test: co-IP; endogenous proteins in Huh7 cells; capture with anti-ARID3A antibody and, in reverse, with anti-CEP131 antibody
# [3] = target: T3, centrosomal protein 131 kDa (CEP131) (human (endogenous in Huh7)); test: as above
binder,measurement,setting,value
B1,binding,[1],binds
B2,binding,[2],binds
B3,binding,[3],binds
